Source: PubChem BioAssay AID1347423 (Functional Genomics Laboratory (NCATS/FGL), 2020)
About 210 (0.4%) of roughly 52,000 sequences were called active.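 How the source made its calls: active means gene whose silencing raises cell survival under the drug, median off-target-corrected z-score across its silencing RNAs 2 or more; inactive means the rest.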 Some of the results follow.

Test: Resistance to Poly (ADP-Ribose) Polymerase inhibitor: Gene Identification via Genome-wide siRNA Screen
Settings: mouse BRCA2 R2336H ES cells, olaparib, CellTiter-Glo viability; active compounds read high
Summary of the method: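 Genome-wide siRNA screen (3 siRNAs/gene, 20 nM) in mouse ES cells carrying hypomorphic BRCA2 R2336H; olaparib 500 nM added 48 h post-transfection, CellTiter-Glo viability 72 h later. Normalized to plate-median negative control; MAD z-scores, gene median, seed-adjusted.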
With GGACAAAGUAUUUGUGACCTT against Cd3d the z-score was inactive: -1.59. For “GGCCCAAGAUUUCAAUUAGTT against 9130230L23Rik”, the z-score was inactive: 0.285. With “GCCACUCACCUGUAGUUCUTT against C030030A07Rik” the z-score was inactive: -1.51. With CCUUUUCAGCAGAAUAUCGTT against Ifnar1 the z-score was inactive: -0.761. With GGGAAUCUAAGCUGUAUUUTT against Lyzl1 the z-score was inactive: -0.58. In the case of GGUAGCACUUACGUGAAAUTT against Mbd2, the z-score is reported as inactive: -0.333. In the case of “GGAGAUGGAGUGAAUUGGCTT against 4933404G15Rik”, the z-score is reported as inactive: 0.893. In the case of “GGAAACUACCUACUACCCGTT against 1600002H07Rik”, the z-score is reported as inactive: 2.24. In the case of GCAACAAUCUAACCUCAGATT against Mela, the z-score is reported as inactive: -0.637. For GGUCGAACUUCUGUGCCAUTT against Slc39a8, the z-score was inactive: 0.173. With GGGCAAGGGCAAGAAAUCUTT against Hist1h1t the z-score was inactive: 2.44. With GCCUUCCUAGAGCUCUUUGTT against Olfr792 the z-score was inactive: -2.5. With GGAGUUCCAUAGCUGUCAATT against Adra1b the z-score was inactive: -1.05. With GAUGAAAGCUACAAUGAAGTT against Srpx2 the z-score was inactive: 0.127. With CGUCGUAUAAAUCGUAAAGTT against Pols the z-score was inactive: 0.886. In the case of GGAAGUGGACCAUUUCUUUTT against Olfr1359, the z-score is reported as inactive: 0.342. In the case of CGAGCAUUUGAAUCGACUATT against Vti1b, the z-score is reported as inactive: 0.404. With GCUGUCUACCAAAGUGACGTT against Cdh1 the z-score was inactive: -0.965. For GGAAGAGUGUUUAAACUAUTT against Takrp, the z-score was inactive: -1.06. In the case of “GGUACAUCAGCAACUUCGATT against 1110032N12Rik”, the z-score is reported as inactive: 0.287. With “GGUCAUCAAAUUCCUAAUCTT against E430036I04Rik” the z-score was inactive: -0.025. In the case of “GGAAGAACUAACAUUUGAGTT against 4732465J09Rik”, the z-score is reported as inactive: 0.703. With GCGAUGUCAAUCAAUUCUGTT against Gpr37l1 the z-score was inactive: 0.591. For “GGCUUGUCAUGAAUUUUUATT against G431002C21Rik”, the z-score was inactive: 0.681. In the case of GGAAUUUUUAGGAAUGGUGTT against Slc35f2, the z-score is reported as inactive: -0.268. In the case of GCUCUAAGCUUCUAGAUCATT against Csf3, the z-score is reported as inactive: 0.567. In the case of “CCUGACUUCCCGCUAUGAGTT against 1500005N04Rik”, the z-score is reported as inactive: 0.441. With CGGGAAAGAGAUCAUCCCUTT against Nr1i2 the z-score was inactive: 0.0162. For GGACUGAGUCAGAUUUACATT against Foxn2, the z-score was inactive: -0.0849. With GGGCCAAGAUACCAAGAGUTT against D2Wsu81e the z-score was inactive: -0.938. For GCUGUAUGAUUGCCGAAAUTT against Nsddr, the z-score was inactive: 0.975. With GGACUUUGUGAAGGACUCUTT against BC023835 the z-score was inactive: -1.14. With GGAUAGCUGCCAACACUACTT against BC048937 the z-score was inactive: -0.0419. For GCUCCUUUGGCCAUAUUAATT against Dnm2, the z-score was inactive: -1.38. In the case of CCAGAUGUCAACCAAUAUATT against Vmd2, the z-score is reported as inactive: 0.0474. In the case of “GGGAAUCAAAUUCGUCUGCTT against 4632417N05Rik”, the z-score is reported as inactive: 0.375. For CGCCUUGUAUCUUUUACAUTT against Taf1a, the z-score was inactive: -0.345. For CCAAAGUGGACAAAUUAGUTT against Pank2, the z-score was inactive: -0.59. In the case of GGACAAGAGAACAACUAGUTT against Mkl2, the z-score is reported as inactive: 0.106. In the case of CGGAAUCGAAACUUAAUUUTT against Efcbp1, the z-score is reported as inactive: -0.0404. For “GGCACUCAGGCUUAAUCAUTT against 9530003J23Rik”, the z-score was inactive: -0.232. With GGCCUGGAAACGUAUUUACTT against Snx24 the z-score was inactive: -0.267. For GCAAAUGAUUCUUGUCAAATT against Cog7, the z-score was inactive: -0.328. For GACUGUAAUGAAGCAUUUATT against Rad21, the z-score was inactive: -3.09. With GCGAAACGCAACAUAGUCATT against Gpr74 the z-score was inactive: 1.27. In the case of “GCUUGAGAUAAGUGGGUUUTT against 2610510H03Rik”, the z-score is reported as inactive: -1.55. For GGUUUCACUGACAAAACUATT against Zim1, the z-score was inactive: 0.905. For CGCAUCAACACCUUCGUGATT against Kcnk3, the z-score was inactive: 1.18. In the case of GCUCUUAAAACCCACCUGATT against Zfp336, the z-score is reported as inactive: -0.147. In the case of CCGAAGCCUAAGGUCCAAATT against Rpl29, the z-score is reported as inactive: 0.919. With CCCUUCUCUGAGACAACACTT against Tcirg1 the z-score was inactive: -0.256. For CCUGAGAUCAAGAACGACATT against Crat, the z-score was inactive: 0.319. For “GGUGAUGCUUCAUAAAAAUTT against 4732497O03Rik”, the z-score was inactive: 1.12. In the case of GGUUUCGGAUAAAGCCAAUTT against Wif1, the z-score is reported as inactive: 1.2. In the case of GCAUCCUAGAGGAUCAAUCTT against Smarcb1, the z-score is reported as inactive: -2.25. For CCAUCUCAUCCCACGACACTT against Mrgprc11, the z-score was inactive: 0.653. For GGAGAUCUUCGAUGACAAUTT against Dvl1, the z-score was inactive: -0.164. With CCCUCCAAAAGAAGACUAUTT against Sh3md1 the z-score was inactive: -1.04. With CGACUGGUCUUGAUUGUUATT against Hist1h2ac the z-score was inactive: 0.887. In the case of GGGAGUUGAGAAGACAUAATT against Lim2, the z-score is reported as inactive: 0.544. In the case of GCGGGAGAAGCUAAUGAAATT against Ndufs5, the z-score is reported as inactive: 0.883. For GGAACCUUAGUGGAGGAUATT against Icos, the z-score was inactive: 0.378. With CCUUAAAACAGAUCCACUUTT against Nell2 the z-score was inactive: 0.818. In the case of GCUCAUUGACAGUAUCAGCTT against Apxl, the z-score is reported as inactive: 0.805. With CGAUCUAGUCCGCCAUUACTT against Lck the z-score was inactive: -1.53. In the case of CCAGGAUCAUUCUUCUGAATT against Chrna7, the z-score is reported as inactive: 0.733. With GGUAAAGGGUUCUUGGACATT against Eps15-rs the z-score was inactive: -1.46. For “GGAGAGUCCAGUUUCCAUUTT against 2810428C21Rik”, the z-score was inactive: 1.11. For GGACCUCAUGAGAAAUAUGTT against Wbscr17, the z-score was inactive: -0.841. With GGAAGGACACACAUCCACUTT against Tpt1h the z-score was inactive: -1.37. For GGAAGGAGCUUCGAAAAAATT against Pex16, the z-score was inactive: 0.0138. For CGAAACUCCCAUUGUUAAUTT against Zfp521, the z-score was inactive: -0.294. For “CCCAUACUAUGCCAGGACATT against B130055A05Rik”, the z-score was inactive: -1.73. With GGCGAGUUUUCCUCUUCAGTT against Sync the z-score was inactive: 0.265. For “CGAAGAUAAUUAUGGAGCCTT against 6030410K14”, the z-score was inactive: -0.166. For GGGUAUACCCAACUUUUACTT against Hhex, the z-score was inactive: 1.84. In the case of GCAGUAAGUCAGUGCCUCATT against Sca1, the z-score is reported as inactive: 1.57. For CCAACCAAUAGUUCUAUACTT against Ppp3r2, the z-score was inactive: 0.442. For GGUCCAACCUUAUUGAAUGTT against Tlr6, the z-score was inactive: 0.522. For “GCGACUGACCUUCAAACUGTT against 9230101H05Rik”, the z-score was inactive: 0.919. With “CCCAAUUUGUAUCAGAGGGTT against 4632425D07Rik” the z-score was inactive: -0.566. For GUCUUGACCUUUGUAACUGTT against Olfr197, the z-score was inactive: -0.228. With “GGCUUGUCGUCCUGGUGUATT against 4930535B03Rik” the z-score was inactive: -1.54. For GGAGGACGAGAACAGUAAGTT against Hcngp, the z-score was inactive: -1.44. With GCUCAUUGAGAUAUCACAATT against Cabp2 the z-score was inactive: 0.647. For GGCUUUACUACUCAACCAUTT against Gjb3, the z-score was inactive: -0.0659. In the case of GGAAACUGUUUUAGAUAAGTT against Tdrd6, the z-score is reported as inactive: -0.595. For “GGAAUCAGAGUUUAAGUACTT against 1500040F11Rik”, the z-score was inactive: -0.59. With “GGAGGGAAUAGAGAAUCGGTT against A930024E05Rik” the z-score was inactive: 0.547. For “GGAAUCUCUUUUCUUGCAUTT against 6330569M22Rik”, the z-score was inactive: 0.903. In the case of CCUGAACAGAUUGAAGAGUTT against Myl3, the z-score is reported as inactive: 1.6. For GGGACUAACUUUCACCAGGTT against Wdr8, the z-score was inactive: 0.234. With GGUCAUCCCAUCUUACAAATT against 4.93E+26 the z-score was inactive: -0.326. With GGUAGACUUGAAGAAGUCATT against AI452372 the z-score was inactive: 0.661. With GGUUCUGCUGGACAACUUUTT against Cyp46a1 the z-score was inactive: -1.02. With “GGCACAAUUGAGGAGCGUATT against 4632409L19Rik” the z-score was inactive: 0.583. For “GGUUCAGACGACAAGCAGATT against 9530068E07Rik”, the z-score was inactive: -0.31. With GGCCACCUAUGAUGGAAAUTT against Kdelr2 the z-score was inactive: -0.317. For CCUAAAUAUCCAAGACAUUTT against Mcm3, the z-score was inactive: -0.726. With GGUCACCGAUGACUACAUCTT against Ccr7 the z-score was inactive: 0.0544. With “GGCCAUAUUUGUUGUUGUUTT against 1810007E14Rik” the z-score was inactive: 0.553. In the case of “GCCUUUCGAACUUGGUUCGTT against E430004F17Rik”, the z-score is reported as inactive: -0.304. In the case of GCCAACCUUAACUAUUAAGTT against F2rl2, the z-score is reported as inactive: -0.241.
